# According to the supplement of paper PMC9671908:
# Structures can show the parent of a compound that is named as a salt. Some of the results follow. Most values come without repeats; read them as rough.
# Legend:
# [1] = tested on: MIA PaCa-2 parental; experiment: parental cell viability relative to untreated parental control; higher = more surviving cells; conditions: treatment time: 9 days
# [2] = tested on: MIA PaCa-2 persister; experiment: persister cell viability relative to untreated persister control; higher = more surviving persister cells; conditions: treatment time: 9 days; cell state: persister (100 nM gemcitabine + 100 nM Torin1)
SMILES,parental cell viability [1] [%],persister cell viability [2] [%]
Cc1cc(Nc2ncc(Cl)c(Nc3ccccc3S(=O)(=O)C(C)C)n2)c(OC(C)C)cc1C1CCNCC1 [Ceritinib] (inhibitor concentration: 1µM),100,99
CN1CCN(CCOc2cc(OC3CCOCC3)c3c(Nc4c(Cl)ccc5c4OCO5)ncnc3c2)CC1 [Saracatinib] (inhibitor concentration: 1µM),14,80
CC(C)N(C[C@H]1O[C@@H](n2cnc3c(N)ncnc32)[C@H](O)[C@@H]1O)[C@H]1C[C@@H](CCc2nc3cc(C(C)(C)C)ccc3[nH]2)C1 (inhibitor concentration: 30µM),99.5,102
COc1ncc(-c2ccc3nccc(-c4ccnnc4)c3c2)cc1NS(=O)(=O)c1ccc(F)cc1F (inhibitor concentration: 1µM),11,96
CNC(=O)c1ccccc1Oc1nc(Nc2cc(OC)c(OC)c(OC)c2)ncc1Br (inhibitor concentration: 1µM),90,95
O=C(N[C@@H](C1CC1)C(F)(F)F)c1cc(-c2cnn3cc(-c4ccc(F)cc4)cnc23)cs1 (inhibitor concentration: 20µM),77.5,20
Cc1[nH]c2ccccc2c1CCNCc1ccc(/C=C/C(=O)NO)cc1 [Panobinostat] (inhibitor concentration: 10nM),97.5,50
COC(=O)c1ccc(O)c(NC(=O)COc2ccc(C34CC5CC(CC(C5)C3)C4)cc2)c1 (inhibitor concentration: 10µM),98.5,102
O=S(=O)(NCCSSCCNS(=O)(=O)c1cc(Cl)ccc1Cl)c1cc(Cl)ccc1Cl (inhibitor concentration: 10µM),98,102
Cn1ncc(Cl)c1-c1cc(C(=O)N[C@H](CN)Cc2cccc(F)c2)sc1Cl [Afuresertib (hydrochloride)] (inhibitor concentration: 10µM),108,107
COc1cccc(-n2c(=O)[nH]c3cc(Cl)n(-c4ccc(-c5cccc(OC)c5O)cc4)c3c2=O)c1 (inhibitor concentration: 30µM),78.5,150
CC(C)(C#N)c1ccc(N2C(=O)OCc3cnc4ccc(-c5cnc6ccccc6c5)cc4c32)cc1 (inhibitor concentration: 10µM),100,104
CN(C)CC[C@H](CSc1ccccc1)Nc1ccc(S(=O)(=O)NC(=O)c2ccc(N3CCN(Cc4ccccc4-c4ccc(Cl)cc4)CC3)cc2)cc1[N+](=O)[O-] (inhibitor concentration: 3µM),98,25
O=C(Nc1cc(Oc2cc(F)c(NC(=O)C3(C(=O)Nc4ccc(F)cc4)CC3)cc2F)ccn1)C1CC1 [Altiratinib] (inhibitor concentration: 3µM),106,100
CN(C)C(=O)c1cc2cnc(Nc3ccc(N4CCNCC4)cn3)nc2n1C1CCCC1 (inhibitor concentration: 1µM),97,210
O=C(C/C(=N/O)[N+](=O)[O-])N1CCN(C(c2ccc(Cl)cc2)c2ccc(Cl)cc2)CC1 (inhibitor concentration: 1µM),97,25
Cc1c(F)cc(C(=O)NC2CC2)cc1-c1ccc(C(=O)NCC(C)(C)C)cn1 [Losmapimod] (inhibitor concentration: 10µM),95,97.5

# Arranged by molar mass (rising): 3 of the compounds above.
SMILES,parental cell viability [1] [%],persister cell viability [2] [%]
Cc1[nH]c2ccccc2c1CCNCc1ccc(/C=C/C(=O)NO)cc1 [Panobinostat] (inhibitor concentration: 10nM),97.5,50
O=C(C/C(=N/O)[N+](=O)[O-])N1CCN(C(c2ccc(Cl)cc2)c2ccc(Cl)cc2)CC1 (inhibitor concentration: 1µM),97,25
CN(C)CC[C@H](CSc1ccccc1)Nc1ccc(S(=O)(=O)NC(=O)c2ccc(N3CCN(Cc4ccccc4-c4ccc(Cl)cc4)CC3)cc2)cc1[N+](=O)[O-] (inhibitor concentration: 3µM),98,25
